Measurements from US9422246B2, “Benzylidene azolidine derivative or salt thereof” (ROHTO Pharmaceutical Co., Ltd., priority 2012, dated 2016).
For at least one compound, name, drawing or mass did not settle the structure.

Assay: UV absorbing properties (UV spectrum in ethanol)
Format: physicochemical
Conditions: 5 ppm in ethanol, quartz cell 1 cm optical path length
Protocol: The resulting compound 1 was dissolved at a concentration of 5 ppm in ethanol as a solvent to form a sample solution. After the prepared sample solution was injected into a quartz cell (1 cm in optical path length), the UV spectrum of the sample was measured with a spectrophotometer (UV-2450 manufactured by SHIMADZU CORPORATION), in which the maximal absorption wavelength (λmax) and the absorbance at the maximal absorption wavelength were determined. When the maximal absorption wavelength falls within the ultraviolet wavelength range, the higher absorbance at the maximal absorption wavelength indicates the better UV absorbing properties.

CCCCC(CC)COC(=O)CCN1C(=O)NC(=Cc2ccc(OC)c(OC)c2)C1=O (centres unmarked) [1′, 2-ethylhexyl dimethoxybenzylidene dioxoimidazolidine propionate, reference compound]
Absorbance at maximal absorption wavelength: 0.30 | Maximal absorption wavelength (λmax): 347 nm
